Results deposited as PubChem BioAssay AID1159578 (Peter MacCallum Cancer Centre, 2015).

Aim: 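siRNA pools altering how lymphatic endothelial cells close a scratch wound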 (primary screen)
Cells: human lymphatic endothelial cells
Reagent: siRNA pool against human genes, 40 nM
Time to read-out: 48 h after transfection
Read-out: 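High-content imaging of dye-stained cells in a scratch assay measures filled wound area and nuclei per well; duplicate means given as ratio to mock and robust z-score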
Reading the numbers: migration robust z-score: higher = faster migration into the scratch; migration relative to mock: higher = more scratch area covered than mock; nuclei per well: higher = more cells in the well
Rule for the call: 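Migration changed when robust z exceeds 2 or falls below -2 and mean nuclei number is at least 3300; otherwise not called changed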
Meaning of the calls: active = migration changed; inactive = no migration change, or too few cells
This is an unselected part of about 18,000 reagents. Over the whole deposit, about 1,030 (5.7%) are marked active. 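Inactive calls also include pools with fewer than 3300 nuclei, whose migration was not assessed.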 Raw values are not corrected between plates.

gene | PubChem SID | migration robust z-score | migration class with cell-count check | migration relative to mock | nuclei per well, duplicate mean | activity call
SORBS3 | SID255354870 | 1.26 | migration z between -2 and 2; enough cells | 1.22 | 6782 | inactive
MYL1 | SID255351107 | 0.69 | migration z between -2 and 2; enough cells | 1.06 | 6098 | inactive
ADGRA3 | SID255363842 | 0.6 | migration z between -2 and 2; enough cells | 0.92 | 6574 | inactive
FOXR1 | SID255364640 | 1.12 | migration z between -2 and 2; enough cells | 1.18 | 5880 | inactive
ENSA | SID255349510 | 0.04 | migration z between -2 and 2; enough cells | 0.9 | 6354 | inactive
TPPP2 | SID255362554 | 0.4 | migration z between -2 and 2; enough cells | 0.99 | 4496 | inactive
SNX21 | SID255361794 | -0.44 | migration z between -2 and 2; enough cells | 0.77 | 5718 | inactive
DLX1 | SID255349315 | -2.64 | migration z below -2; enough cells | 0.2 | 3638 | active
VAMP8 | SID255353728 | -1.15 | migration z between -2 and 2; enough cells | 0.58 | 5018 | inactive
KLHL34 | SID255364561 | -0.08 | migration z between -2 and 2; enough cells | 0.86 | 6609 | inactive
FBXL17 | SID255360020 | -0.21 | migration z between -2 and 2; enough cells | 0.76 | 6130 | inactive
WT1 | SID255353148 | 0.42 | migration z between -2 and 2; enough cells | 0.88 | 5108 | inactive
FCER1G | SID255349642 | -0.16 | migration z between -2 and 2; enough cells | 0.78 | 5752 | inactive
EBF3 | SID255364429 | 1.88 | migration z between -2 and 2; enough cells | 1.38 | 6354 | inactive
CATSPERT | SID255363487 | -2.84 | migration z below -2; enough cells | 0.15 | 5512 | active
QRFPR | SID255361201 | 0.24 | migration z between -2 and 2; enough cells | 0.85 | 6314 | inactive
PCARE | SID255365529 | 0.25 | migration z between -2 and 2; enough cells | 0.95 | 5185 | inactive
MSC | SID255354139 | -0.13 | migration z between -2 and 2; enough cells | 0.78 | 5403 | inactive
MAPKAPK2 | SID255354153 | -2.44 | migration z below -2; enough cells | 0.34 | 3830 | active
BTF3 | SID255348590 | -2.54 | migration z below -2; enough cells | 0.32 | 3952 | active

8 entries from above, set out differently.
ADGRA3 [SID255363842]
- migration robust z-score: 0.6
- migration class with cell-count check: migration z between -2 and 2; enough cells
- migration relative to mock: 0.92
- nuclei per well, duplicate mean: 6574
- activity call: inactive

FOXR1 [SID255364640]
- migration robust z-score: 1.12
- migration class with cell-count check: migration z between -2 and 2; enough cells
- migration relative to mock: 1.18
- nuclei per well, duplicate mean: 5880
- activity call: inactive

ENSA [SID255349510]
- migration robust z-score: 0.04
- migration class with cell-count check: migration z between -2 and 2; enough cells
- migration relative to mock: 0.9
- nuclei per well, duplicate mean: 6354
- activity call: inactive

TPPP2 [SID255362554]
- migration robust z-score: 0.4
- migration class with cell-count check: migration z between -2 and 2; enough cells
- migration relative to mock: 0.99
- nuclei per well, duplicate mean: 4496
- activity call: inactive

SNX21 [SID255361794]
- migration robust z-score: -0.44
- migration class with cell-count check: migration z between -2 and 2; enough cells
- migration relative to mock: 0.77
- nuclei per well, duplicate mean: 5718
- activity call: inactive

DLX1 [SID255349315]
- migration robust z-score: -2.64
- migration class with cell-count check: migration z below -2; enough cells
- migration relative to mock: 0.2
- nuclei per well, duplicate mean: 3638
- activity call: active

VAMP8 [SID255353728]
- migration robust z-score: -1.15
- migration class with cell-count check: migration z between -2 and 2; enough cells
- migration relative to mock: 0.58
- nuclei per well, duplicate mean: 5018
- activity call: inactive

KLHL34 [SID255364561]
- migration robust z-score: -0.08
- migration class with cell-count check: migration z between -2 and 2; enough cells
- migration relative to mock: 0.86
- nuclei per well, duplicate mean: 6609
- activity call: inactive

The list goes on.
gene | PubChem SID | migration robust z-score | migration class with cell-count check | migration relative to mock | nuclei per well, duplicate mean | activity call
TRIM3 | SID255355224 | -0.49 | migration z between -2 and 2; enough cells | 0.71 | 4820 | inactive
PTGIS | SID255351929 | -0.24 | migration z between -2 and 2; enough cells | 0.76 | 5983 | inactive
TPD52 | SID255352939 | -0.4 | migration z between -2 and 2; enough cells | 0.78 | 6426 | inactive
C4orf36 | SID255362938 | 0.01 | migration z between -2 and 2; enough cells | 0.88 | 5063 | inactive
LAMTOR4 | SID255365567 | 1.38 | migration z between -2 and 2; enough cells | 1.25 | 7361 | inactive
TINAG | SID255357003 | 0.78 | migration z between -2 and 2; enough cells | 0.96 | 5360 | inactive
NUP214 | SID255353365 | 0.21 | migration z between -2 and 2; enough cells | 0.84 | 5621 | inactive
NXT2 | SID255358955 | -0.65 | migration z between -2 and 2; enough cells | 0.68 | 5236 | inactive
SLC6A8 | SID255352466 | -0.62 | migration z between -2 and 2; enough cells | 0.68 | 5322 | inactive
PIK3R5 | SID255356309 | -4.82 | under 3300 nuclei; migration not judged | -0.12 | 816 | inactive
KSR1 | SID255353862 | -1.38 | migration z between -2 and 2; enough cells | 0.54 | 3632 | inactive
TPPP | SID255355573 | -0.26 | migration z between -2 and 2; enough cells | 0.82 | 5799 | inactive
FAM171A1 | SID255364268 | -0.18 | migration z between -2 and 2; enough cells | 0.84 | 5946 | inactive
LRRC4B | SID255362106 | 0.85 | migration z between -2 and 2; enough cells | 1.1 | 7176 | inactive
TWSG1 | SID255359240 | 1.29 | migration z between -2 and 2; enough cells | 1.22 | 6534 | inactive
ERN1 | SID255349555 | 0.47 | migration z between -2 and 2; enough cells | 0.9 | 6154 | inactive
AARS1 | SID255348117 | -1.77 | migration z between -2 and 2; enough cells | 0.46 | 5814 | inactive
S100A3 | SID255352262 | 0.26 | migration z between -2 and 2; enough cells | 0.86 | 5180 | inactive
FSCN3 | SID255357274 | -0.25 | migration z between -2 and 2; enough cells | 0.82 | 5756 | inactive
OFD1 | SID255353583 | 0.08 | migration z between -2 and 2; enough cells | 0.9 | 7090 | inactive
LINC02908 | SID255365797 | -0.67 | migration z between -2 and 2; enough cells | 0.71 | 5436 | inactive
MTERF4 | SID255362882 | -0.67 | migration z between -2 and 2; enough cells | 0.71 | 5158 | inactive
DSG4 | SID255363328 | -0.52 | migration z between -2 and 2; enough cells | 0.75 | 4532 | inactive
ZNF14 | SID255353189 | -0.93 | migration z between -2 and 2; enough cells | 0.64 | 7586 | inactive
B2M | SID255348496 | -0.2 | migration z between -2 and 2; enough cells | 0.76 | 4582 | inactive
MROH8 | SID255363124 | 0.17 | migration z between -2 and 2; enough cells | 0.92 | 4862 | inactive
ATAD5 | SID255360563 | 0.1 | migration z between -2 and 2; enough cells | 0.91 | 5912 | inactive
CIMAP1B | SID255365925 | -0.52 | migration z between -2 and 2; enough cells | 0.74 | 5437 | inactive
GGTLC1 | SID255361977 | -1.17 | migration z between -2 and 2; enough cells | 0.58 | 5503 | inactive
POC1B | SID255364626 | -0.56 | migration z between -2 and 2; enough cells | 0.74 | 4637 | inactive
GSTT2 | SID255350080 | 0.64 | migration z between -2 and 2; enough cells | 0.93 | 5963 | inactive
PBX4 | SID255360785 | 0.8 | migration z between -2 and 2; enough cells | 0.96 | 5339 | inactive
CD14 | SID255348763 | -0.6 | migration z between -2 and 2; enough cells | 0.69 | 7358 | inactive
MIDEAS | SID255361947 | -0.05 | migration z between -2 and 2; enough cells | 0.88 | 6265 | inactive
FARP2 | SID255354611 | -0.29 | migration z between -2 and 2; enough cells | 0.81 | 5831 | inactive
S1PR5 | SID255357932 | 0.28 | migration z between -2 and 2; enough cells | 0.86 | 5727 | inactive
ZDHHC1 | SID255357178 | -1.23 | migration z between -2 and 2; enough cells | 0.56 | 4756 | inactive
